# Assay results reported in article PMC7998613, “Annexin A2 Flop-Out Mediates the Non-Vesicular Release of DAMPs/Alarmins from C6 Glioma Cells Induced by Serum-Free Conditions” (Cells, 2021).
# Results are given in words; binding and its absence hold for the method and conditions named. In cells and extracts the contact can be indirect. Some binding calls cover weakened binding; strength is not graded here.
# B1: annexin A2 (ANXA2), endogenous in C6 glioma cells (natural protein, rat (endogenous in C6 glioma cells), UniProt Q07936 1-339, looked up)
# chain: MSTVHEILCKLSLEGDHSTPPSAYGSVKPYTNFDAERDALNIETAIKTKGVDEVTIVNILTNRSNAQRQDIAFAYQRRTKKELPSAMKSALSGHLETVMLGLLKTPAQYDASELKASMKGLGTDEDSLIEIICSRTNQELQEINRVYKEMYKTDLEKDIISDTSGEFRKLLVALAKGKRAEDGSVIDYELIDQDARELYDAGVKRKGTDVPKWISIMTERSVCHLQKVFERYKSYSPYDMLESIRKEVKGDLENAFLNLVQCIQNKPLYFADRLYDSMKGKGTRDKVLIRIMVSRSEVDMLKIRSEFKRKYGKSLYYFIQQDTKGDYQKALLYLCGGDD
# notes: annexin A2, rat, endogenous in C6 glioma cells; In whole cell extracts it ran as a single band; also called dimeric ANXA2 of 63 kDa; ANXA2 dimer; source: endogenous, rat C6 glioma cells (cytosolic fraction; fixed cells for in situ PLA)
# Target: S100A13, endogenous in C6 glioma cells (rat (endogenous in C6 glioma cells))
# Assay: proximity ligation; Duolink in situ PLA on fixed C6 glioma cells with mouse anti-S100A13 and rabbit anti-ANXA2. Cells were sampled before and at 1.5 and 3 h after change to serum-free medium, with 100 µM amlexanox in the culture.
binder,measurement,value
B1,binding,binds
